Reference: PubChem BioAssay AID743458 (Peter MacCallum Cancer Centre, 2014)

Screen: 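Identify genes whose loss lifts vorinostat resistance in colon cancer cells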 (follow-up of hits)
Cell system: human HCT116-VR colon cancer cells made resistant to vorinostat
Reagents: single siRNA or pool against human genes, 25 nM per single siRNA
Time to read-out: about 72 h after transfection, including 24 h of drug
Treatment: vorinostat, 2.5 µM final, for 24 h
Detection: 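Live-cell fluorescent viability and luminescent caspase 3/7 activity after vorinostat treatment, background subtracted, mean of duplicate plates, as fold change over mock-transfected wells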
Reading the numbers: viability relative to mock: higher = more living cells than mock; caspase activity relative to mock: higher = more apoptosis than mock
Active means: 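Active means a reduced-viability or caspase-activation class, anything else inactive; classes could only be given to wells that looked healthy when left untreated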
This is a random part of about 1,800 deposited reagents. 732 of all reagents (41%) were called active. 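Calls are per siRNA reagent; a gene was deemed confirmed only if most of its four siRNAs scored.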 The numbers tell different reagents against one gene apart. No sequences are given here.

AQR (aquarius intron-binding spliceosomal factor) #1 gave viability relative to mock 0.36; caspase activity relative to mock 3.69; viability hit class reduced viability; caspase hit class caspase activation; active.
AQR (aquarius intron-binding spliceosomal factor) #2 gave viability relative to mock 0.39; caspase activity relative to mock 4.23; viability hit class reduced viability; caspase hit class caspase activation; active.
Depletion of AQR (aquarius intron-binding spliceosomal factor) #3 gave: viability relative to mock 0.41; caspase activity relative to mock 3.3; viability hit class reduced viability; caspase hit class caspase activation; active.
AQR (aquarius intron-binding spliceosomal factor) #4 showed viability relative to mock 0.42; caspase activity relative to mock 3.99; viability hit class reduced viability; caspase hit class caspase activation; active.
NUP133 (nucleoporin 133) #1 gave viability relative to mock 0.29; caspase activity relative to mock 5.45; viability hit class reduced viability; caspase hit class caspase activation; active.
Silencing of NUP133 (nucleoporin 133) #2 resulted in: viability relative to mock 0.76; caspase activity relative to mock 4.45; viability hit class no change; caspase hit class caspase activation; active.
NUP133 (nucleoporin 133) #3 gave viability relative to mock 0.5; caspase activity relative to mock 3.65; viability hit class reduced viability; caspase hit class caspase activation; active.
NUP133 (nucleoporin 133) #4 showed viability relative to mock 0.64; caspase activity relative to mock 4; viability hit class no change; caspase hit class caspase activation; active.
For INTS6L (integrator complex subunit 6 like) #1 the deposit lists viability relative to mock 0.68; caspase activity relative to mock 3.54; viability hit class no change; caspase hit class caspase activation; active.
With knock-down of INTS6L (integrator complex subunit 6 like) #2, the record shows viability relative to mock 0.66; caspase activity relative to mock 2.7; viability hit class no change; caspase hit class caspase activation; active.
Against INTS6L (integrator complex subunit 6 like) #3, the values are viability relative to mock 1; caspase activity relative to mock 1.19; viability hit class no change; caspase hit class no change; inactive.
With knock-down of INTS6L (integrator complex subunit 6 like) #4, the record shows viability relative to mock 0.86; caspase activity relative to mock 2.24; viability hit class no change; caspase hit class no change; inactive.
Knock-down of SKIC2 (SKI2 subunit of superkiller complex) #1 came out at: viability relative to mock 0.81; caspase activity relative to mock 2.99; viability hit class no change; caspase hit class caspase activation; active.
With knock-down of SKIC2 (SKI2 subunit of superkiller complex) #2, the record shows viability relative to mock 0.92; caspase activity relative to mock 1.38; viability hit class no change; caspase hit class no change; inactive.
With knock-down of SKIC2 (SKI2 subunit of superkiller complex) #3 the results were viability relative to mock 0.72; caspase activity relative to mock 1.46; viability hit class no change; caspase hit class no change; inactive.
Depletion of SKIC2 (SKI2 subunit of superkiller complex) #4 resulted in: viability relative to mock 0.55; caspase activity relative to mock 3.19; viability hit class reduced viability; caspase hit class caspase activation; active.

2 of these entries in another layout:
| target gene | reagent no. | viability relative to mock | caspase activity relative to mock | viability hit class | caspase hit class | activity call |
| --- | --- | --- | --- | --- | --- | --- |
| SKIC2 (SKI2 subunit of superkiller complex) | 2 | 0.92 | 1.38 | no change | no change | inactive |
| SKIC2 (SKI2 subunit of superkiller complex) | 3 | 0.72 | 1.46 | no change | no change | inactive |

Further results follow.
Depletion of POLR2D (RNA polymerase II subunit D) #1 came out at: viability relative to mock 0.14; caspase activity relative to mock 3.96; viability hit class reduced viability; caspase hit class caspase activation; active.
POLR2D (RNA polymerase II subunit D) #2 gave viability relative to mock 0.4; caspase activity relative to mock 3.88; viability hit class reduced viability; caspase hit class caspase activation; active.
POLR2D (RNA polymerase II subunit D) #3 gave viability relative to mock 0.26; caspase activity relative to mock 3.56; viability hit class reduced viability; caspase hit class caspase activation; active.
POLR2D (RNA polymerase II subunit D) #4 showed viability relative to mock 0.52; caspase activity relative to mock 4; viability hit class reduced viability; caspase hit class caspase activation; active.
With knock-down of DHDH (dihydrodiol dehydrogenase) #1, the screen gave viability relative to mock 0.26; caspase activity relative to mock 2.91; viability hit class reduced viability; caspase hit class caspase activation; active.
Silencing of DHDH (dihydrodiol dehydrogenase) #2 resulted in: viability relative to mock 1.04; caspase activity relative to mock 2.28; viability hit class no change; caspase hit class no change; inactive.
Knock-down of DHDH (dihydrodiol dehydrogenase) #3 resulted in: viability relative to mock 0.73; caspase activity relative to mock 0.9; viability hit class no change; caspase hit class no change; inactive.
Against DHDH (dihydrodiol dehydrogenase) #4 the deposit lists viability relative to mock 0.85; caspase activity relative to mock 1.28; viability hit class no change; caspase hit class no change; inactive.
Knock-down of MARK3 (microtubule affinity regulating kinase 3) #1 resulted in: viability relative to mock 0.76; caspase activity relative to mock 1.2; viability hit class no change; caspase hit class no change; inactive.
MARK3 (microtubule affinity regulating kinase 3) #2 gave viability relative to mock 1.03; caspase activity relative to mock 1.06; viability hit class no change; caspase hit class no change; inactive.
For MARK3 (microtubule affinity regulating kinase 3) #3, the entry reads viability relative to mock 1.06; caspase activity relative to mock 1.21; viability hit class no change; caspase hit class no change; inactive.
For MARK3 (microtubule affinity regulating kinase 3) #4, the entry reads viability relative to mock 0.88; caspase activity relative to mock 3.44; viability hit class no change; caspase hit class caspase activation; active.
